Experiment [1] has as its target T1, endogenous estrogen related receptor alpha (ERR1) (human (endogenous in MCF-7 and MDA-MB-231)) (UniProt P11474).
T1 sequence: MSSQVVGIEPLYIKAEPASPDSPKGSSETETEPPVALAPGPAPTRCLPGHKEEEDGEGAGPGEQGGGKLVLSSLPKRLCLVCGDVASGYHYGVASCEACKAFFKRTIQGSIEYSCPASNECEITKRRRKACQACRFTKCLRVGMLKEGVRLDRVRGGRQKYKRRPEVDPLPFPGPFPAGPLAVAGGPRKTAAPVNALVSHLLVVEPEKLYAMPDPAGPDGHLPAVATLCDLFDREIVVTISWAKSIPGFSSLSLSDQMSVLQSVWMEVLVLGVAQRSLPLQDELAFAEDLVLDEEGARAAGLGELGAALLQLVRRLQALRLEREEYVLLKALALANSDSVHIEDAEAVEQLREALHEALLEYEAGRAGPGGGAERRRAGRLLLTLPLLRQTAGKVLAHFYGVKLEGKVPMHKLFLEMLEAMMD
The experiment in a line: co-IP; endogenous proteins, ER-negative MDA-MB-231 cells; not shown.

For experiment [2], the target named is T1, endogenous estrogen related receptor alpha (ERR1) (human (endogenous in MCF-7 and MDA-MB-231)). The experiment in a line: co-IP; endogenous proteins, MCF-7 lysate; overnight with 10 μg mouse anti-ERR1 antibody or non-specific control IgG, Protein-G sepharose; immunoblot.
Experiment [3] deals with T2, GST-tagged full-length KIF17 (human) (UniProt Q9P2E2).
T2 sequence: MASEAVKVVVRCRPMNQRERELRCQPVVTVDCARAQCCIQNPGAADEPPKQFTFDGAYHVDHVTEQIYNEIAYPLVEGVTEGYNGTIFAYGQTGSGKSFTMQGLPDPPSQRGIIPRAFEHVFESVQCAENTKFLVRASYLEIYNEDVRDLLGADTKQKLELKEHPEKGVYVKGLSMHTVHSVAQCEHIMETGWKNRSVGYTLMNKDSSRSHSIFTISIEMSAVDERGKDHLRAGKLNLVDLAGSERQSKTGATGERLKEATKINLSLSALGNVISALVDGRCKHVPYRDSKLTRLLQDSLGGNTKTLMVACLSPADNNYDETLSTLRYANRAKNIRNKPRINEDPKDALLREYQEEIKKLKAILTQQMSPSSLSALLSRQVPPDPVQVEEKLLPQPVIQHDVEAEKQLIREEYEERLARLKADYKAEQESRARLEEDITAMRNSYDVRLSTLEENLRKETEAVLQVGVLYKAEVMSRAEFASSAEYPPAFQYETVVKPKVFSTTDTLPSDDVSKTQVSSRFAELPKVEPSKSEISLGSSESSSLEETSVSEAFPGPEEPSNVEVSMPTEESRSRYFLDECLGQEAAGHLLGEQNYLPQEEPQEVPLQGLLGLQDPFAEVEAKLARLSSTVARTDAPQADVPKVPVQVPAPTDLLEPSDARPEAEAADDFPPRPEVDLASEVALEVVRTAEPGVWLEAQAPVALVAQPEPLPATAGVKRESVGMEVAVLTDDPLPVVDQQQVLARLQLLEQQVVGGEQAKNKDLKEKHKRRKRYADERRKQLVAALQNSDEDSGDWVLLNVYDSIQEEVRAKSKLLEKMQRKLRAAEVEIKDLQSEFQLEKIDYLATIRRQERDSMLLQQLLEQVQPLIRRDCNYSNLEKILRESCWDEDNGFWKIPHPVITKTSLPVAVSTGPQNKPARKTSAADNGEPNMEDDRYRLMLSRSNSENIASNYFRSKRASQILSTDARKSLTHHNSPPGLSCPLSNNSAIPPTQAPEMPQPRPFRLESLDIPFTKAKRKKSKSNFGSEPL
The experiment is described as follows: pull-down; purified, recombinant GST-tagged proteins immobilized on glutathione-sepharose beads; GFP-ERR1 from cell lysates; not shown; only the target purified.

No constants are given. Whether binding was seen depends on the method and setting. Binding seen in cells or lysates may run through a third protein. Some entries that bind do so weakly or less than the wild type. For part of these data: Sequences can lack the tags named with a protein.

B1: endogenous KIF17 (protein, UniProt Q9P2E2 1-1029)
chain: MASEAVKVVVRCRPMNQRERELRCQPVVTVDCARAQCCIQNPGAADEPPKQFTFDGAYHVDHVTEQIYNEIAYPLVEGVTEGYNGTIFAYGQTGSGKSFTMQGLPDPPSQRGIIPRAFEHVFESVQCAENTKFLVRASYLEIYNEDVRDLLGADTKQKLELKEHPEKGVYVKGLSMHTVHSVAQCEHIMETGWKNRSVGYTLMNKDSSRSHSIFTISIEMSAVDERGKDHLRAGKLNLVDLAGSERQSKTGATGERLKEATKINLSLSALGNVISALVDGRCKHVPYRDSKLTRLLQDSLGGNTKTLMVACLSPADNNYDETLSTLRYANRAKNIRNKPRINEDPKDALLREYQEEIKKLKAILTQQMSPSSLSALLSRQVPPDPVQVEEKLLPQPVIQHDVEAEKQLIREEYEERLARLKADYKAEQESRARLEEDITAMRNSYDVRLSTLEENLRKETEAVLQVGVLYKAEVMSRAEFASSAEYPPAFQYETVVKPKVFSTTDTLPSDDVSKTQVSSRFAELPKVEPSKSEISLGSSESSSLEETSVSEAFPGPEEPSNVEVSMPTEESRSRYFLDECLGQEAAGHLLGEQNYLPQEEPQEVPLQGLLGLQDPFAEVEAKLARLSSTVARTDAPQADVPKVPVQVPAPTDLLEPSDARPEAEAADDFPPRPEVDLASEVALEVVRTAEPGVWLEAQAPVALVAQPEPLPATAGVKRESVGMEVAVLTDDPLPVVDQQQVLARLQLLEQQVVGGEQAKNKDLKEKHKRRKRYADERRKQLVAALQNSDEDSGDWVLLNVYDSIQEEVRAKSKLLEKMQRKLRAAEVEIKDLQSEFQLEKIDYLATIRRQERDSMLLQQLLEQVQPLIRRDCNYSNLEKILRESCWDEDNGFWKIPHPVITKTSLPVAVSTGPQNKPARKTSAADNGEPNMEDDRYRLMLSRSNSENIASNYFRSKRASQILSTDARKSLTHHNSPPGLSCPLSNNSAIPPTQAPEMPQPRPFRLESLDIPFTKAKRKKSKSNFGSEPL
For B1, the binding result in experiment [1] and in experiment [2] was “binds” throughout.

B2: full-length GFP-ERR1 (protein, UniProt P11474 1-423)
chain: MSSQVVGIEPLYIKAEPASPDSPKGSSETETEPPVALAPGPAPTRCLPGHKEEEDGEGAGPGEQGGGKLVLSSLPKRLCLVCGDVASGYHYGVASCEACKAFFKRTIQGSIEYSCPASNECEITKRRRKACQACRFTKCLRVGMLKEGVRLDRVRGGRQKYKRRPEVDPLPFPGPFPAGPLAVAGGPRKTAAPVNALVSHLLVVEPEKLYAMPDPAGPDGHLPAVATLCDLFDREIVVTISWAKSIPGFSSLSLSDQMSVLQSVWMEVLVLGVAQRSLPLQDELAFAEDLVLDEEGARAAGLGELGAALLQLVRRLQALRLEREEYVLLKALALANSDSVHIEDAEAVEQLREALHEALLEYEAGRAGPGGGAERRRAGRLLLTLPLLRQTAGKVLAHFYGVKLEGKVPMHKLFLEMLEAMMD
Consider B2, for which the binding result in experiment [3] is “binds”.

(Values after article PMC5584137.)
